In the supplement of paper PMC8728848:
The list shows a part of the results.

Columns and labels:
Test in all cases: glycan array binding signal (z-score within array); higher = stronger binding
Details in all cases: glycan notation: IUPAC condensed, linker removed
[1] = biological target: Gal(a1-3)Gal(b1-4)GlcNAc(b1-2)Man
How it was run: (§1)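 Glycan array binding is given as a within-array Z-score, which can be read as non-binding when negative. The arrays, 3228 of them, came from the Consortium for Functional Glycomics database and were retained only where the protein sequence was available. Z-scores were averaged across arrays of the same protein sequence at different concentrations or buffers and across linkers.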

[2] = biological target: Gal(a1-3)Gal(b1-4)GlcNAc(b1-2)Man(a1-3)[Gal(a1-3)Gal(b1-4)GlcNAc(b1-2)Man(a1-6)]Man(b1-4)GlcNAc(b1-4)GlcNAc
How it was run: as §1

[3] = biological target: Gal(a1-3)Gal(b1-4)GlcNAc(b1-3)GalNAc
How it was run: as §1

[4] = biological target: Gal(a1-3)Gal(b1-4)GlcNAc(b1-6)GalNAc
How it was run: as §1

[5] = biological target: Gal(a1-3)Gal(b1-4)[Fuc(a1-3)]GlcNAc
How it was run: as §1

[6] = biological target: Gal(a1-3)Gal(b1-4)[Fuc(a1-3)]GlcNAc(b1-2)Man(a1-3)[Gal(a1-3)Gal(b1-4)[Fuc(a1-3)]GlcNAc(b1-2)Man(a1-6)]Man(b1-4)GlcNAc(b1-4)GlcNAc
How it was run: as §1

[7] = biological target: Gal(a1-3)GalNAc
How it was run: as §1

[8] = biological target: Gal(a1-3)[Gal(a1-4)]Gal(b1-4)GlcNAc
How it was run: as §1

[9] = biological target: Gal(a1-4)Gal(b1-3)GlcNAc(b1-2)Man(a1-3)[Gal(a1-4)Gal(b1-3)GlcNAc(b1-2)Man(a1-6)]Man(b1-4)GlcNAc(b1-4)GlcNAc
How it was run: as §1

[10] = biological target: Gal(a1-4)Gal(b1-4)Glc
How it was run: as §1

[11] = biological target: Gal(a1-4)Gal(b1-4)GlcNAc
How it was run: as §1

[12] = biological target: Gal(a1-4)Gal(b1-4)GlcNAc(b1-2)Man(a1-3)[Gal(a1-4)Gal(b1-4)GlcNAc(b1-2)Man(a1-6)]Man(b1-4)GlcNAc(b1-4)GlcNAc
How it was run: as §1

[13] = biological target: Gal(a1-4)Gal(b1-4)GlcNAc(b1-3)Gal(b1-4)Glc
How it was run: as §1

[14] = biological target: Gal(a1-4)GlcNAc
How it was run: as §1

[15] = biological target: Gal(a1-6)Glc
How it was run: as §1

[16] = biological target: Gal(b1-2)Gal
How it was run: as §1

[17] = biological target: Gal(b1-3)Gal
How it was run: as §1

[18] = biological target: Gal(b1-3)Gal(b1-4)GlcNAc
How it was run: as §1

[19] = biological target: Gal(b1-3)GalNAc
How it was run: as §1

[20] = biological target: Gal(b1-3)GalNAc(a1-3)[Fuc(a1-2)]Gal(b1-4)Glc
How it was run: as §1

[21] = biological target: Gal(b1-3)GalNAc(a1-3)[Fuc(a1-2)]Gal(b1-4)GlcNAc
How it was run: as §1

[22] = biological target: Gal(b1-3)GalNAc(b1-3)Gal
How it was run: as §1

[23] = biological target: Gal(b1-3)GalNAc(b1-3)Gal(a1-4)Gal(b1-4)Glc
How it was run: as §1

[24] = biological target: Gal(b1-3)GalNAc(b1-4)Gal(b1-4)Glc
How it was run: as §1

[25] = biological target: Gal(b1-3)GalNAc(b1-4)[Neu5Ac(a2-3)]Gal(b1-4)Glc
How it was run: as §1

[26] = biological target: Gal(b1-3)GlcNAc
How it was run: as §1

[27] = biological target: Gal(b1-3)GlcNAc(a1-3)Gal(b1-4)GlcNAc
How it was run: as §1

[28] = biological target: Gal(b1-3)GlcNAc(a1-6)Gal(b1-4)GlcNAc
How it was run: as §1

[29] = biological target: Gal(b1-3)GlcNAc(b1-2)Man
How it was run: as §1

[30] = biological target: Gal(b1-3)GlcNAc(b1-2)Man(a1-3)[Gal(b1-3)GlcNAc(b1-2)Man(a1-6)]Man(b1-4)GlcNAc(b1-4)GlcNAc
How it was run: as §1

[31] = biological target: Gal(b1-3)GlcNAc(b1-2)Man(a1-3)[Gal(b1-3)GlcNAc(b1-2)Man(a1-6)]Man(b1-4)GlcNAc(b1-4)[Fuc(a1-6)]GlcNAc
How it was run: as §1

[32] = biological target: Gal(b1-3)GlcNAc(b1-2)Man(a1-3)[GlcNAc(b1-4)][Gal(b1-3)GlcNAc(b1-2)Man(a1-6)]Man(b1-4)GlcNAc(b1-4)GlcNAc
How it was run: as §1

[33] = biological target: Gal(b1-3)GlcNAc(b1-2)[Gal(b1-3)GlcNAc(b1-6)]Man(a1-6)[Gal(b1-3)GlcNAc(b1-2)Man(a1-3)]Man(b1-4)GlcNAc(b1-4)GlcNAc
How it was run: as §1

[34] = biological target: Gal(b1-3)GlcNAc(b1-3)Gal(b1-3)GlcNAc
How it was run: as §1

[35] = biological target: Gal(b1-3)GlcNAc(b1-3)Gal(b1-4)Glc
How it was run: as §1

[36] = biological target: Gal(b1-3)GlcNAc(b1-3)Gal(b1-4)GlcNAc
How it was run: as §1

[37] = biological target: Gal(b1-3)GlcNAc(b1-3)Gal(b1-4)GlcNAc(b1-2)Man(a1-3)[Gal(b1-3)GlcNAc(b1-3)Gal(b1-4)GlcNAc(b1-2)Man(a1-6)]Man(b1-4)GlcNAc(b1-4)GlcNAc
How it was run: as §1

B1: PX14343E-bfa-545-24-545 (Bacteroides fragilis) (protein)
chain: LDRYPQEELSDGSFWKTPDDANKVVSDLYGYLSTWDQDNDINSDNATMGIKWAAGNVSKGIYDPADQGWSGDYANVRQCNLILSKIDEIPDYPEADKTKALGQVYFFRAYIYFNLIRSFGDVPYIDKPLDLKDMEGITRMPRAEVYEKIMADFDKAIAALPTEWGASDYGRVTKGAAMAMKARAALYYGNWDTAATEAKNVMDLGLYELYDKDNTGKYAELFWEKADGCDEFILVTQFNYPDKTHYLMGWECFPTKGWGGMNPTQSLVDAFEDSEGAPISKSKIYDPTDPFKNRDPRLEVDILHDGEEMYGVTIKVAPLASSGSTGINQHNDATETGYYGQKWLDPSLDPLSDGWNMGKDWVHIRYAEVLLTYAEAKNELQGLDPEAFDAVNQVRRRVGMPELQNTDPSKPTYCATQDDLRQRIRNEWRVEFCLEGGKRMWDIRRWGIAKDVLNAPFEGLKYKIVDNPNDPDKKVDGGKMCILYQGDPIILSGSRYSDNNYLFPVPQSEIDLNPALTQNPGY
[1]
  glycan array binding signal (z-score): -0.268
[2]
  glycan array binding signal (z-score): 4.55
[3]
  glycan array binding signal (z-score): 0.972
[4]
  glycan array binding signal (z-score): 0.58
[5]
  glycan array binding signal (z-score): -0.568
[6]
  glycan array binding signal (z-score): 3.48
[7]
  glycan array binding signal (z-score): -0.817
[8]
  glycan array binding signal (z-score): -0.842
[9]
  glycan array binding signal (z-score): 2.18
[10]
  glycan array binding signal (z-score): 0.889
[11]
  glycan array binding signal (z-score): -0.178
[12]
  glycan array binding signal (z-score): -0.239
[13]
  glycan array binding signal (z-score): -0.116
[14]
  glycan array binding signal (z-score): -1.08
[15]
  glycan array binding signal (z-score): -0.033
[16]
  glycan array binding signal (z-score): 0.303
[17]
  glycan array binding signal (z-score): -0.397
[18]
  glycan array binding signal (z-score): -0.519
[19]
  glycan array binding signal (z-score): -0.501
[20]
  glycan array binding signal (z-score): 0.05
[21]
  glycan array binding signal (z-score): -0.472
[22]
  glycan array binding signal (z-score): -0.357
[23]
  glycan array binding signal (z-score): -0.76
[24]
  glycan array binding signal (z-score): -0.816
[25]
  glycan array binding signal (z-score): -0.286
[26]
  glycan array binding signal (z-score): -0.11
[27]
  glycan array binding signal (z-score): -0.464
[28]
  glycan array binding signal (z-score): -0.683
[29]
  glycan array binding signal (z-score): 0.04
[30]
  glycan array binding signal (z-score): 0.652
[31]
  glycan array binding signal (z-score): 1.15
[32]
  glycan array binding signal (z-score): 0.264
[33]
  glycan array binding signal (z-score): 1.16
[34]
  glycan array binding signal (z-score): -0.621
[35]
  glycan array binding signal (z-score): -0.272
[36]
  glycan array binding signal (z-score): -0.675
[37]
  glycan array binding signal (z-score): -0.298
